This passage reports binding results from publication PMC10339064.

Amino acid sequences for entries named in this document (tags omitted).
UniProt Q12778: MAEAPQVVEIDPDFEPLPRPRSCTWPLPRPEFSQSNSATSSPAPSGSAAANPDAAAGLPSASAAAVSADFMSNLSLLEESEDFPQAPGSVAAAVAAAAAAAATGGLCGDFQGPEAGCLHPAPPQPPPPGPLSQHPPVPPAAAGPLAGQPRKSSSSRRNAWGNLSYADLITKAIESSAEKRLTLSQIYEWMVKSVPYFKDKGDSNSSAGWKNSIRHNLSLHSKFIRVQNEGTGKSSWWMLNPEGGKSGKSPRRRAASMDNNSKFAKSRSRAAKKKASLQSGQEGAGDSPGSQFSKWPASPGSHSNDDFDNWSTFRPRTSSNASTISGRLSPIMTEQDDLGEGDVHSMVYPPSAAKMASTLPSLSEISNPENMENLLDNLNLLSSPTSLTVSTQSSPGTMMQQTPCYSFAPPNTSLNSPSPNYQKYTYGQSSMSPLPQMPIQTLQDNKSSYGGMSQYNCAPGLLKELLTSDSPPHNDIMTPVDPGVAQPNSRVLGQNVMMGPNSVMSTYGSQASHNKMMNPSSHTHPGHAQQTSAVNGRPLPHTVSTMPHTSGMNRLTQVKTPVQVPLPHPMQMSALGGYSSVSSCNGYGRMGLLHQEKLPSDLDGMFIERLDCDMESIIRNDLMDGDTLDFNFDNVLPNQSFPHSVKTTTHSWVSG

These are yes or no findings as the source states them, for the method shown. Binding seen in cells or lysates may run through a third protein. Some results given as binding are weak or reduced against the parent protein; the word gives no strength.

The assay deals with Forkhead box O1 (FoxO1), FLAG-tagged (UniProt Q12778). Kind of assay: co-IP; FLAG M2 magnetic beads on lysates of transfected HEK293 cells; lysis in buffer A (50 mM Tris-HCl pH 7.4, 150 mM NaCl, 1% NP-40, 1 mM EDTA, 10 mM NaF, 2 mM Na3VO4), IP in buffer A with 0.5% NP-40, 2 h at 4 °C (4 h or 8 h with malonyl-CoA, other acyl-CoAs (500 μM) or NADH added to the lysates); some cells treated with lactate/pyruvate ratios (1 h) or pemafibrate/fenofibrate (24 h); eluted with 3x FLAG peptide, Western blot. For orientation: Immunoblotting shows a protein as a band on a membrane.

As for “C-terminal binding protein 2 (CtBP2), wild type, HA-tagged (from UniProt P56545 1-445)”, the binding entry was “binds”.
